Results are given as percent effect.
The record does not define 0% and 100%; most values in the screen are far below 50% and negative numbers occur (in some assays of this library far below -100).
This is an unselected part of the compounds tested.

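Whole-cell assay for inhibitors of Mycobacterium tuberculosis growth, labelled Cornell in the record; the read-out is not stated. The concentration is filed as 10 mM, unlikely as a test dose, so the dose is not known. The record gives no direction; compounds strong in two other growth screens of this library score well above the rest, so higher reads as stronger inhibition. About 53,000 compounds were tested under these conditions; 1.7% (about 900) showed 50% or more at least once.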

| structure | Percent Effect |
|---|---|
| `COc1cccc2c1OCC(NCc1cnn(-c3ccccc3)c1)C2` (stereo unspecified) | -10.33 |
| `Cc1nn(C)c(Cl)c1C1CCCN1C(=O)c1ccoc1C` (stereo unspecified) | 10.99 |
| `COCCC(=O)NCCc1nc(N(C)C)ncc1-c1ccncc1` | 15.76 |
| `CC(C)c1ncc2c(n1)CN(CC1CCCCO1)CC2` (stereo unspecified) | -42.39 |
| `COCCC1(CO)CCCN(Cc2ccc(C(F)(F)F)nc2)C1` (stereo unspecified) | 18.43 |
| `COCCC(=O)N1CCC(c2nc(O)cc(-c3ccncc3)n2)C1` (stereo unspecified) | -15.53 |
| `Cc1n[nH]c(C)c1-c1cnc(CC2CCN(C(C)C)CC2)cn1` | -7.239 |
| `CN(C)CCOCc1nnc2n1CCN(Cc1ccco1)CC2.O=C(O)C(F)(F)F.O=C(O)C(F)(F)F` | 13.72 |
| `O=C(NCC1CCOC1)c1csc(-c2ccc(F)cc2)n1` (stereo unspecified) | -10.74 |
| `CCC(NC(=O)NC1CCN(S(C)(=O)=O)CC1)c1cccs1` (stereo unspecified) | 8.226 |
| `CS(=O)(=O)N1CCCC(Cc2cncc(-c3ccccc3C(=O)O)n2)C1` (stereo unspecified) | 11.9 |
| `[H][C@]12CCN(C(=O)c3cccn3C)[C@@]1([H])CCC(=O)N2CC1CC1` | 17.2 |
| `Cn1ccc(C(=O)N(CC(F)F)c2cccc(Cl)c2)cc1=O` | 1.752 |
| `CCN1CCN(CCNc2nc3ccc(C)cc3c(=O)n2C)CC1` | -18.04 |
| `[H][C@@]12CN(C(=O)c3ccsc3)C[C@]1([H])C(=O)N(CC)C2` | -10.97 |
| `COc1ccnc(N2CCN(C(=O)c3ccn(C)c(=O)c3)CC2)n1` | 11.5 |
| `Cc1cccc(C2CCCN(C(=O)CN3CCCC3=O)C2)c1` (stereo unspecified) | 1.61 |
| `COCCNc1ccc(CNC(=O)Nc2cn[nH]c2)cc1` | -6.249 |
| `Cc1nc(N2CCN3CCCCC3C2)nc2cc(S(C)(=O)=O)ccc12` (stereo unspecified) | -59.61 |
| `CSc1nnc(C2CCN(C(=O)N3CCCC3)CC2)n1C(C)C` | 1.83 |
| `Cc1cncc(C(=O)N2CCC3(CC2)C(=O)Nc2ccccc23)c1` | 10.55 |
| `O=C(CSC1CCc2ccccc2NC1=O)Nc1ccc(CCO)cc1` (stereo unspecified) | 5.56 |
| `c1ccc(CN2CCCC2)c(CNc2cncc3nnnn23)c1` | 11.01 |
| `Clc1cccc(Cl)c1CNCCOc1ccccn1` | 47.24 |
| `Cc1nccc(CC2COCCN(c3cnccn3)C2)n1` (stereo unspecified) | -7.582 |
| `CNC(=O)NC(=O)CN1CCN(CC2CC2)c2ccccc21` | 12.93 |
| `Cl.O=C(NC1CCCC1)c1ccnc(C2CCNCC2)c1` | 56.56 |
| `CNC(=O)C1CCCCN1C(=O)c1csc(-c2ccc(C)cc2)n1` (stereo unspecified) | 18.26 |
| `Cn1cc(C(=O)CC2CCCN2C(=O)c2ccn3ccnc3c2)cn1` (stereo unspecified) | -15.97 |
| `O=C(c1cc(C2CCCCN2C(=O)C2CCC2)n[nH]1)N1CCOCC1` (stereo unspecified) | -29.92 |
| `Cc1nc(CN2CCOC(CNc3cccnn3)C2)oc1C` (stereo unspecified) | -11.35 |
| `[H][C@]12CNC[C@@]1(C(=O)N(C)Cc1nc(C)c[nH]1)CNC2` | -19.02 |
| `[H][C@@]12CCN(C(=O)c3cc(C)[nH]c3C)C[C@]1(c1nc(C)no1)CCO2` | 9.309 |
| `CN(CC(=O)NCC(C)(C)c1ccc2c(c1)OCO2)c1cnccn1` | 13.27 |
| `O=C(NCCc1cc2nc(-c3ccncc3)ccn2n1)C1CC1` | 17.55 |
| `CCOc1ccc(C#N)cc1NCc1cc(C)on1` | -5.121 |
| `CC(=O)N[C@@H]1CN(C(=O)c2cnccn2)C[C@H]1c1ccc(C)cc1` | 17.72 |
| `Cc1noc(C)c1CN1CCN(Cc2nccn2C)C(C)C1` (stereo unspecified) | -15.73 |
| `CNCc1cc(F)ccc1Oc1ccc(Cl)cc1` | -16.87 |
| `COc1cccc2c1OCC(C(=O)N(C)CCCc1cnn(C)c1)C2` (stereo unspecified) | -10.27 |
| `Oc1ccc(-c2c(-c3ccccc3)ncn2C2CCNC2)cc1` (stereo unspecified) | -12.52 |
| `c1ccc(-n2ncc(CN3CCCC(Cn4cncn4)C3)n2)cc1` (stereo unspecified) | 2.145 |
| `CC(CO)NS(=O)(=O)c1cccc(C(C)C)c1` (stereo unspecified) | 6.509 |
| `O=C(CCn1c(=O)oc2ccccc21)NCC(O)c1ccc(F)c(F)c1` (stereo unspecified) | 15.73 |
| `Cc1ncoc1C(=O)N1CCOC(CC2CCCCC2)C1` (stereo unspecified) | 30.5 |
| `[H][C@]12CCN(C(=O)c3cnoc3C)[C@@]1([H])CCC(=O)N2CC1CC1` | 0.7729 |
| `COCCN1C(=O)CCC12CCN(C(=O)CNC(C)=O)CC2` | 16.32 |
| `Cc1ccc2nc(C)cc(C(=O)N[C@H]3COC[C@@H]3N3CCOCC3)c2c1` | 17.83 |
| `CC(=O)N[C@@H]1CN(C(=O)CC2CCOCC2)C[C@H]1O` | -6.838 |
| `Cn1ccnc1-c1ccc(NCC2COCCO2)nn1` (stereo unspecified) | 26.78 |
| `CCN(CCSc1ccccc1)C(=O)c1cn([C@H]2CC[C@@H](N)CC2)nn1` | 1.984 |
| `CN(Cc1cc2n(n1)CCCNC2)Cc1cc(-c2ccncc2)no1` | 23.71 |
| `c1cc(C2CCCN2CC2CCCCC2)n[nH]1` (stereo unspecified) | 7.212 |
| `CC(=O)NCCNC(=O)c1nc(C2CC2)n(-c2ccccc2Cl)n1` | -12.75 |
| `O=C(c1ccccn1)N1CCN(c2ccc(-n3cccc3)nn2)CC1` | 7.911 |
| `Cc1cc(CN2CCC(CNS(=O)(=O)c3ccccc3Cl)CC2)c(C)o1` | 23.09 |
| `COCc1ncc(CN2C[C@@H](C(=O)O)[C@H](C(C)C)C2)cn1` | -67.34 |
| `CCS(=O)(=O)N1CC(c2nc(-c3cccs3)no2)C1` | 8.063 |
| `[H][C@@]12CCN(C(=O)c3ccnnc3)C[C@@]1([H])O[C@H](c1nc(C)cs1)C2` | 9.145 |
| `CC(C)n1ncc2c1NC(=O)CSC2C(F)(F)F` (stereo unspecified) | 20.32 |
| `Cc1nn(C)c2nc(NC3CCNCC3)sc12` | 23.18 |
| `CNC(=O)c1cccc(NC(=O)Cn2nc(-c3cccs3)oc2=O)c1` | -12.89 |
| `Cc1nc(C2(NCc3cccc(F)c3F)CCCCC2)no1` | 23.28 |
| `Fc1ccc2[nH]c3c(c2c1)CCN1C(c2ccccn2)N2CCC31CC2` (stereo unspecified) | 17.16 |
| `CS(=O)(=O)N1CCc2c(cccc2NC(=O)NC2CCCC2)C1` | 6.107 |
| `COc1ccc(F)cc1CN1CCC(O)(CN2CCCCC2)C1` (stereo unspecified) | 36.21 |
| `O=C(CC1CCCO1)NCCc1ccccc1Br` (stereo unspecified) | -2.273 |
| `CC1CN(C(=O)NCCNc2cnccn2)CCO1` (stereo unspecified) | -25.89 |
| `CCC(C)N(Cc1ccncc1)C(=O)CCSC` (stereo unspecified) | -30.31 |
| `COCCN1CCCC(c2ncc(C(=O)N(C)C)c(C)n2)C1` (stereo unspecified) | -12.02 |
| `CCCc1nccn1-c1ccc(C(O)CN2CCOCC2)cc1` (stereo unspecified) | -22.35 |
| `O=C(CCc1cc2n(n1)CCN(Cc1ccncc1)C2)N1CCCC1` | -52.88 |
| `CN(C)[C@@H]1CCN(C(=O)Cc2ccc(F)cc2)[C@H]1Cc1ccncc1.O=C(O)C(F)(F)F.O=C(O)C(F)(F)F` | 10.88 |

Measurements from “University of Dundee, Small-Polar-MMV Screening Library” (2021), ChEMBL document CHEMBL3988442.